# The list shows a part of the results. The main result of the screen is listed elsewhere. These columns were measured beside it and carry no call. Compounds called inactive in the main read-out are mostly missing here. Words in brackets tell the shape of the fitted curve; partial curves, single points and poor fits give uncertain potencies.
# Test: qHTS Assay for Lipid Storage Modulators in Drosophila S3 Cells;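 for cell number change: cells counted by Cell Tracker Red CMTPX staining in the red channel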
# Details: BODIPY lipid droplet fluorescence, 18-24 h; for cell number change: measured here: cell count max response, cells fed with added oleic acid
# Outline: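 Laser-scanning cytometry quantifies lipid droplet accumulation (500–530 nm total intensity; droplet/cell object ratio) in oleic acid-fed (400 uM added) Drosophila S3 cells treated with a concentration series. 20 uM Triacsin C defined 100% inhibition.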
# [1] = measured here: lipid fluorescence (Fed channel) AC50, cells fed with added oleic acid
# [2] = measured here: cell number channel AC50, cells fed with added oleic acid
Structure (SMILES),cell number change,AC50 [1],AC50 [2]
O=C1NC(c2ccco2)Nc2ccccc21 (stereo not drawn),0.376%,"0.146 µM [falling, full curve, poor fit]",
Cc1cc(OCC(=O)OCC(=O)c2c(N)n(C)c(=O)n(C)c2=O)ccc1Cl,-44.2%,"18.4 µM [falling, partial curve]","9.2 µM [falling, partial curve]"
Cc1ccc(CNC(=O)C(C(=O)NCc2ccc(C)o2)c2ncc(C(F)(F)F)cc2Cl)o1,-6.83%,"0.00461 µM [falling, full curve, poor fit]","0.731 µM [falling, single point]"
Cc1ccc(C(=O)NNC(=O)CSc2nnc3c(n2)[nH]c2ccc(C)cc23)cc1,-29.4%,,
Cc1cccc(CSc2nnnn2-c2ccccc2)c1,83.1%,"3.26 µM [rising, partial curve, poor fit]","2.31 µM [rising, full curve]"
O=C(NCC1COc2ccccc2O1)c1cccs1 (stereo not drawn),13.1%,,
Cc1[nH]c2c(C(=O)N3CCCC(CCC(=O)NCc4ccccc4F)C3)cccc2c1C (stereo not drawn),-13.2%,"29.1 µM [falling, single point]",
Cc1ccc2c(C)nc(/N=C(\N)NC(=O)N3c4ccccc4Sc4ccccc43)nc2c1,,"0.411 µM [rising, full curve]","1.16 µM [rising, partial curve]"
CC(C)c1ccc(NC(=S)NC2CCN(Cc3ccccc3)CC2)cc1,-22.4%,"29.1 µM [falling, single point]",
Cc1nc(CCNS(=O)(=O)c2cccs2)cs1,20.3%,"29.1 µM [falling, single point]",
Cn1cc(Cl)c(C(=O)Nc2cccc(Cl)c2Cl)n1,64.7%,,"29.1 µM [rising, single point]"
CCCCOc1ccc(/C(O)=C2/C(=O)C(=O)N(CCCOC)C2c2ccncc2)cc1 (stereo not drawn),38.6%,,"29.1 µM [rising, single point]"
CCOC(=O)c1sc2nc(CC(=O)OC)nc(NCc3ccc(F)cc3)c2c1C,-12.4%,"23.1 µM [falling, single point]",
Cc1ccc(NC(=O)CSc2nnc(Cc3ccccc3)o2)c(C)c1,24.7%,"18.4 µM [rising, single point]",
COc1ccc(-c2nn(-c3ccccc3)cc2C(=O)Nc2ccc(C(=O)O)cc2)cc1,2.14%,"32.6 µM [falling, single point]",
CCC1Oc2ccccc2N(CC(=O)N2CCOCC2)C1=O (stereo not drawn),34.7%,"0.291 µM [rising, partial curve, poor fit]",
C/C(=N/NC(=O)CNC(=O)c1ccncc1)c1ccco1,-0.13%,"0.184 µM [falling, full curve, poor fit]",
Cc1cccc(C)c1NC(=O)CSc1nnc(-c2ccccc2)n1Cc1ccc2c(c1)OCO2,-3.33%,,"6.51 µM [falling, single point]"

Structure (SMILES),cell number change,AC50 [1],AC50 [2]
O=C(COC(=O)CCC(=O)c1ccc(F)cc1)Nc1nnc(-c2ccccc2)o1,-5.72%,,"0.146 µM [falling, full curve, poor fit]"
CC(C)OC(=O)c1c2c(n3ccccc13)C(=O)c1ccccc1C2=O,-59.7%,"2.91 µM [falling, full curve]","11.6 µM [falling, partial curve]"
O=C(CCCN1C(=O)c2ccccc2C1=O)N1CCc2ccccc2C1,,"4.11 µM [rising, single point]","2.91 µM [rising, single point]"
COc1ccc(C2N=C(N)N=C(N)N2c2ccc(C)cc2)cc1 (stereo not drawn),-33.9%,"4.61 µM [falling, partial curve]","1.46 µM [falling, partial curve, poor fit]"
COc1ccc(C2(C)NC(=O)N(CC(=O)c3cc(C)n(C4CC4)c3C)C2=O)cc1OC (stereo not drawn),7.67%,"0.146 µM [rising, full curve, poor fit]",
CCCOc1ccc(/C(O)=C2/C(=O)C(=O)N(CCN(CC)CC)C2c2ccncc2)cc1 (stereo not drawn),4.53%,"2.91 µM [falling, single point]",
O=C(O)CNC1=NCCC1,-1.31%,,
COC(=O)c1[nH]c2cc(C)ccc2c1NC(=O)CN1CCc2cc(OC)c(OC)cc2C1,,"0.651 µM [rising, partial curve]","2.91 µM [rising, partial curve]"
C=CCn1c(SCc2cc(C(C)=O)ccc2OCC)nc2ccccc2c1=O,8.71%,"2.91 µM [falling, single point]",
O=S(=O)(Nc1ccc2c(c1)nc1n2CCN(Cc2ccccc2)C1)c1ccc(Cl)cc1,-30.3%,,"7.31 µM [falling, partial curve, poor fit]"
O=S(=O)(c1ccc(F)cc1)N1CCN(c2ccc(-c3ccccc3)nn2)CC1,9.51%,"6.51 µM [rising, single point]","6.51 µM [rising, single point]"
CC(=O)Nc1nc2ccc(C(=O)NC3CCCCC3)cc2s1,-29.4%,"25.9 µM [falling, partial curve]",
CCN(CC)CCNC(=O)c1cc2c(-c3ccc(Cl)cc3)nn(C)c2s1,13.2%,,"0.231 µM [rising, full curve, poor fit]"
Cc1cc2c(nc1C)CCCN2C[C@@H](C)O/N=C1/[C@H]2CCn3c(=O)n(-c4ccccc4)c(=O)n3[C@H]2[C@H](O)[C@@H]2O[C@H]12,14.6%,"9.2 µM [rising, partial curve]",
CCCCN(C(=O)CSc1nc2ccccc2n1CC)C1CCS(=O)(=O)C1 (stereo not drawn),-14.9%,"0.103 µM [falling, full curve, poor fit]",
CCOCCCn1c(=S)[nH]c2cc3c(cc2c1=O)OCO3,,"2.06 µM [rising, partial curve]","2.59 µM [rising, partial curve]"
CCCC(=O)Nc1ccc2c(c1)nc(CCNC(=O)c1ccccc1)n2C,4.88%,"4.61 µM [rising, full curve, poor fit]",

# Part of the list above, bar-delimited.
Structure (SMILES) | cell number change | AC50 [1] | AC50 [2]
Cc1ccc(C(=O)NNC(=O)CSc2nnc3c(n2)[nH]c2ccc(C)cc23)cc1 | -29.4% |  | 
O=C(NCC1COc2ccccc2O1)c1cccs1 (stereo not drawn) | 13.1% |  | 
Cc1[nH]c2c(C(=O)N3CCCC(CCC(=O)NCc4ccccc4F)C3)cccc2c1C (stereo not drawn) | -13.2% | 29.1 µM [falling, single point] | 
Cn1cc(Cl)c(C(=O)Nc2cccc(Cl)c2Cl)n1 | 64.7% |  | 29.1 µM [rising, single point]
COc1ccc(-c2nn(-c3ccccc3)cc2C(=O)Nc2ccc(C(=O)O)cc2)cc1 | 2.14% | 32.6 µM [falling, single point] | 
CCC1Oc2ccccc2N(CC(=O)N2CCOCC2)C1=O (stereo not drawn) | 34.7% | 0.291 µM [rising, partial curve, poor fit] | 
Cc1cccc(C)c1NC(=O)CSc1nnc(-c2ccccc2)n1Cc1ccc2c(c1)OCO2 | -3.33% |  | 6.51 µM [falling, single point]
O=C(COC(=O)CCC(=O)c1ccc(F)cc1)Nc1nnc(-c2ccccc2)o1 | -5.72% |  | 0.146 µM [falling, full curve, poor fit]
Cc1cc2c(nc1C)CCCN2C[C@@H](C)O/N=C1/[C@H]2CCn3c(=O)n(-c4ccccc4)c(=O)n3[C@H]2[C@H](O)[C@@H]2O[C@H]12 | 14.6% | 9.2 µM [rising, partial curve] | 
CCCCN(C(=O)CSc1nc2ccccc2n1CC)C1CCS(=O)(=O)C1 (stereo not drawn) | -14.9% | 0.103 µM [falling, full curve, poor fit] | 
